These results are taken from PubChem BioAssay AID198 (DTP/NCI, 2004).

The list shows only some results of the screen, not a fair sample: it covers a few groups of compounds. Other doses and runs of a compound may be missing. T/C is the treated group as % of the vehicle group. Where survival is the endpoint, the PubChem record calls one and a half times the control and up active, and a quarter to a half above the control has no call in these data; cut-offs in other NCI protocols can differ. Schedule codes are those of the source, taken here to give the interval after Q, in days (D) or hours (H), and the number of doses after X. Some T/C values are marked as having no survivor count here; that says nothing about deaths at the dose.

The assay relates to B16 melanoma ip, C57BL/6 mice, median survival T/C. Description: NCI In Vivo Anticancer Drug Screen. Data for tumor model B16 Melanoma (intraperitoneal) in C57BL/6 mice. The conditions noted are these: T/C endpoint: median survival time, schedule: Q01DX009 (ip), vehicle: saline sonified, higher T/C = longer survival. As to the method:
The antitumor activity of compounds was measured in mice bearing transplantable tumors. Survival or tumor size were measured and the results are expressed as the measurement made in the treated group (T) divided by the measurement made in the vehicle treated control group (C). The tumor model used in this assay is B16 Melanoma (intraperitoneal) in C57BL/6 mice

For the molecule `CC(=O)OCC12CCC(C)=CC1OC1C(O)C(OC(C)=O)C2(C)C12CO2` (stereo not given), the T/C is, setting by setting: (dose: 0.13 mg/kg/injection) 108 % of control [survivor count not shown]; (dose: 0.25 mg/kg/injection) 114 % of control [survivor count not shown]; (dose: 0.5 mg/kg/injection) 117 % of control [survivor count not shown]; (dose: 1.0 mg/kg/injection) 111 % of control [survivor count not shown]; (dose: 2.0 mg/kg/injection) 102 % of control [survivor count not shown].
